PubChem BioAssay AID1259308 – NCATS | 2017

Aim: 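Knock-downs that increase output of a recombinant reporter protein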 (primary screen)
Cells: human HEK293 embryonic kidney cells stably expressing firefly luciferase (HEK-CMV-Luc2-Hygro)
Reagents: single siRNA against human genes, 0.8 pmol siRNA per well
Time to read-out: 72 h
Read-out: 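Luciferase light (ONE-Glo) measured on one replicate plate set and viability (CellTiter-Glo) on the other, scaled to a negative control siRNA, with robust z-scores and luciferase per cell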
Direction: total luciferase, z-score: higher = more reporter protein produced
Hit rule: 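An siRNA counts as active if its total luciferase robust z-score exceeds 3; genes with two or more such siRNAs out of three were retested with fresh siRNAs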
Calls: active = raised luciferase; inactive = no rise
This is a random part of about 59,000 reagents. Over the whole deposit, about 1,510 (2.6%) are marked active. 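Calls use total luciferase alone and ignore viability, so some active siRNAs may act by altering cell number.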 Reagents against one gene are numbered here. Not all columns of the deposit are shown. Reagent sequences are not shown.

ERLIN1 (ER lipid raft associated 1) #1 → total luciferase, z-score: 0.196; Outcome: inactive
ERLIN1 (ER lipid raft associated 1) #2 → total luciferase, z-score: 0.09; Outcome: inactive
ERLIN1 (ER lipid raft associated 1) #3 → total luciferase, z-score: -0.524; Outcome: inactive
OR1N2 (olfactory receptor family 1 subfamily N member 2) #1 → total luciferase, z-score: 0.193; Outcome: inactive
OR1N2 (olfactory receptor family 1 subfamily N member 2) #2 → total luciferase, z-score: -0.947; Outcome: inactive
OR1N2 (olfactory receptor family 1 subfamily N member 2) #3 → total luciferase, z-score: 2.42; Outcome: inactive

2 successive records from above:
OR1N2 (olfactory receptor family 1 subfamily N member 2) #1 → total luciferase, z-score: 0.193; Outcome: inactive
OR1N2 (olfactory receptor family 1 subfamily N member 2) #2 → total luciferase, z-score: -0.947; Outcome: inactive

Next records:
LINC00960 (long independently transcribed non-coding RNA 960) #1 → total luciferase, z-score: 0.981; Outcome: inactive
LINC00960 (long independently transcribed non-coding RNA 960) #2 → total luciferase, z-score: 0.835; Outcome: inactive
LINC00960 (long independently transcribed non-coding RNA 960) #3 → total luciferase, z-score: -1.44; Outcome: inactive
MAN1A2 (mannosidase alpha class 1A member 2) #1 → total luciferase, z-score: -0.505; Outcome: inactive
MAN1A2 (mannosidase alpha class 1A member 2) #2 → total luciferase, z-score: -1.5; Outcome: inactive
MAN1A2 (mannosidase alpha class 1A member 2) #3 → total luciferase, z-score: 0.0989; Outcome: inactive
